Measurements: the supplement of paper PMC12889115
The other results are listed elsewhere or left out. These are raw signals, not scaled to a control.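 First-pass screen: polymyxin B was added at a level that permeabilizes the Salmonella outer membrane while sparing the inner membrane. DMSO wells, with and without polymyxin B, defined maximum growth. Because plates differed from one another, each plate's data were ranked separately and the compounds with the lowest OD600 were carried forward as hits.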

Test system: Salmonella enterica serovar Typhimurium SL1344
Experiment: bacterial growth OD600 after 18 h with compound and polymyxin B; higher = more bacterial growth (less inhibition)
Conditions: 50 µM, Mueller-Hinton broth

SMILES	bacterial growth OD600 (polymyxin B 0.75 µg/mL)	bacterial growth OD600 (polymyxin B 1 µg/mL)
COc1cccc(-c2nn(-c3ccccc3)cc2CN2CCCC(OC)C2)c1 (configuration not stated)	0.664	
CCOC(=O)C1(Cc2ccccc2F)CCCN(C(=O)c2cccc3nccnc23)C1 (configuration not stated)		0.859
COc1cccc(Cc2cc(C(=O)NCc3cc(OC)ccc3OC)on2)c1	0.733	
c1ccc2c(c1)CC(NCc1cccn1-c1nccs1)CO2 (configuration not stated)		1.03
COC(=O)c1ccc(CNC(C)c2cnn(-c3ccc(OC)cc3)c2C)cc1 (configuration not stated)		1.05
Cc1oc(-c2ccccc2NC(=O)c2ccccc2)nc1CNC(=O)c1cc(-c2ccccc2)n[nH]1	0.791	
CCOC(=O)C1(Cc2ccccc2)CCCN(Cc2c(C)n(C)n(-c3ccccc3)c2=O)C1 (configuration not stated)		0.82
CCn1ccnc1CN1CCC(Oc2cc(C(=O)NC3CC3)ccc2OC)CC1		1.26
O=C(NCCc1cscn1)C1(N2CCCCC2)Cc2ccccc2C1	0.582	
C[C@@H]1CN(Cc2ccc3c(c2)CN(Cc2nc4ccccc4n2C)CCO3)C[C@H](C)O1	0.816	
Cc1ccc(-c2n[nH]cc2CN(C)Cc2ccc3nonc3c2)cc1C		0.696
CCn1cc(CN2CCCC2C(=O)Nc2ccc(-c3cscn3)cc2)cn1 (configuration not stated)	0.85	
CCn1nc(C)c(CN2CCC(C3CCN(CC(C)C)CC3)C2)c1C (configuration not stated)	0.851	
NC(=O)C1CCN(C(=O)c2csc3nc(-c4ccccc4Cl)cn23)CC1		0.88
CCn1cc(C(=O)N2CCCC(CCc3cccc(F)c3)C2)cn1 (configuration not stated)	0.485	
CCOC(=O)N1CCN(Cc2nc(N3CCCCCC3)c3ccccc3n2)CC1	0.904	

10 of the compounds above, in CSV form.
SMILES,bacterial growth OD600 (polymyxin B 0.75 µg/mL),bacterial growth OD600 (polymyxin B 1 µg/mL)
COc1cccc(Cc2cc(C(=O)NCc3cc(OC)ccc3OC)on2)c1,0.733,
c1ccc2c(c1)CC(NCc1cccn1-c1nccs1)CO2 (configuration not stated),,1.03
COC(=O)c1ccc(CNC(C)c2cnn(-c3ccc(OC)cc3)c2C)cc1 (configuration not stated),,1.05
Cc1oc(-c2ccccc2NC(=O)c2ccccc2)nc1CNC(=O)c1cc(-c2ccccc2)n[nH]1,0.791,
CCOC(=O)C1(Cc2ccccc2)CCCN(Cc2c(C)n(C)n(-c3ccccc3)c2=O)C1 (configuration not stated),,0.82
CCn1ccnc1CN1CCC(Oc2cc(C(=O)NC3CC3)ccc2OC)CC1,,1.26
O=C(NCCc1cscn1)C1(N2CCCCC2)Cc2ccccc2C1,0.582,
C[C@@H]1CN(Cc2ccc3c(c2)CN(Cc2nc4ccccc4n2C)CCO3)C[C@H](C)O1,0.816,
Cc1ccc(-c2n[nH]cc2CN(C)Cc2ccc3nonc3c2)cc1C,,0.696
CCn1cc(CN2CCCC2C(=O)Nc2ccc(-c3cscn3)cc2)cn1 (configuration not stated),0.85,

(more compounds)

SMILES	bacterial growth OD600 (polymyxin B 0.75 µg/mL)	bacterial growth OD600 (polymyxin B 1 µg/mL)
O=C(NC1CCCN(CCc2ccccc2)C1)c1c(F)ccc(F)c1F (configuration not stated)	0.817	
CCN(Cc1ccncc1)C(=O)CC1(c2cccc(C(F)(F)F)c2)CC(=O)N(C2CC2)C1=O (configuration not stated)	0.988	
COc1ccc(CCN2C(=O)O[C@@H]3CN(C4CCOCC4)C[C@@H]32)cc1		1.04
CCN1C(=O)CC(CC(=O)N2CCN(c3ccccc3O)CC2)(c2cccc(C(F)(F)F)c2)C1=O (configuration not stated)	0.833	
CCN(Cc1cccc(C)n1)CC1CCCN(CCc2cccc(OC)c2)C1 (configuration not stated)		0.894
COC(=O)[C@@H](NC(=O)c1cc(OC)ccc1OC1CCN(C(C)=O)CC1)C(C)C		1.23
Cc1ccc(CNc2nc(CN(C)C(C)c3ccon3)nc3ccccc23)cc1 (configuration not stated)	0.806	
CCOc1ccccc1CN1CCCC(CNC(=O)c2cccs2)C1 (configuration not stated)		0.886
CCOC(=O)C1(Cc2ccc(F)cc2)CCCN(C(=O)C2CC2)C1 (configuration not stated)		1.06
O=C1CCC(CCC(=O)N2CCC(C(O)Cc3ccccc3)CC2)(Cc2ccc(Cl)cc2)N1 (configuration not stated)	0.824	
O=C(NCc1ccncc1)c1cc(CN2CCC(Cc3ccccc3)CC2)on1		0.878
Cc1nn(C)c(C)c1CN(C)C(=O)CC(c1ccccc1)c1ccccc1F (configuration not stated)	0.496	
O=C1N(Cc2cccc(Cl)c2)C[C@@H]2C[C@@H](c3ccccc3)N3CCC[C@@]123	0.513	
COc1ccccc1CCC(=O)Nc1cnn(CC(=O)NC(C)Cc2ccsc2)c1 (configuration not stated)	0.798	
CCc1noc(C)c1C(=O)N1CCC(CCC(=O)Nc2cccc(OC)c2)CC1		1.08
O=C(NCc1ccc(F)c(F)c1)C1CCC(=O)N(CC2CCCCC2)C1 (configuration not stated)		1.02
